## Primary screen of a compound library

Protein sequences, listed by entry. Tags and fused reporters are not part of them.
UniProt P9WPC5, whole entry: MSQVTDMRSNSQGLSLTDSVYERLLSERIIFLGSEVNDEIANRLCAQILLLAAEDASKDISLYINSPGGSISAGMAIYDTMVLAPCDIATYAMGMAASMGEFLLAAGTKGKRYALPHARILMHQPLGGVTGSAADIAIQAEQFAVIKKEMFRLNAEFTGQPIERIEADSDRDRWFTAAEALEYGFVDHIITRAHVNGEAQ
UniProt P9WPC3, whole entry partner: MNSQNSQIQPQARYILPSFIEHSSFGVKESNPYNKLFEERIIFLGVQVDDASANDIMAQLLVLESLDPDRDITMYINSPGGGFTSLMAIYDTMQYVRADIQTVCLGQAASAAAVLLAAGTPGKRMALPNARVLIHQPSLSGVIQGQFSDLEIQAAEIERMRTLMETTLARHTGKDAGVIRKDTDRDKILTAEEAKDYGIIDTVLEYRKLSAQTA
UniProt P9WFT3, whole entry: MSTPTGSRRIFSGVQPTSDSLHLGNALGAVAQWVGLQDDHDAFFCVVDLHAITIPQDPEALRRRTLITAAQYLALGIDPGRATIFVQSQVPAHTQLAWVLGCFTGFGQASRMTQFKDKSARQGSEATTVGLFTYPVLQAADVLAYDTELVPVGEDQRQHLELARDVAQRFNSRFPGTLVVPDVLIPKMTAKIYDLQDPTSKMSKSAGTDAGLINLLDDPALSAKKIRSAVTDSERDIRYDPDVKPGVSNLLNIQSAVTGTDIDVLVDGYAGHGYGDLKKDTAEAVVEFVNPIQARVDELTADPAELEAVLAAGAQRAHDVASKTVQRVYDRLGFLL
UniProt P9WNZ1, whole entry: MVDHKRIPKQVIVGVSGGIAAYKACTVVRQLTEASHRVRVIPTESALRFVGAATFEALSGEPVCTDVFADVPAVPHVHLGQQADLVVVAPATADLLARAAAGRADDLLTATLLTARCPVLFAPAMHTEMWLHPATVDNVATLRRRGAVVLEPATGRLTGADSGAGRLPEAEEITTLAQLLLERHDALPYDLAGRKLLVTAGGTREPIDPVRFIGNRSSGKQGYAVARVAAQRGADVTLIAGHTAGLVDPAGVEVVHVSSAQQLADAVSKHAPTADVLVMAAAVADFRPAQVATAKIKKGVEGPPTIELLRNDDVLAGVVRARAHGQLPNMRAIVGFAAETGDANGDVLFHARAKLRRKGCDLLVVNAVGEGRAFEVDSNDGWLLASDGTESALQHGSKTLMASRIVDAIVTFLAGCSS

From ChEMBL document CHEMBL3988442, “University of Dundee, Small-Polar-MMV Screening Library” (2021).

A: 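ClpP1P2, Mycobacterium tuberculosis (UniProt P9WPC5 and UniProt P9WPC3). Protease assay of ClpP1P2, read by the AMC dye that it sets free. Tested at 50 µM. Higher reads as stronger inhibition, judged from the few compounds that gave an IC50. Most other retested compounds had strongly negative values. About 69,000 compounds were tested under these conditions; 0.015% (about 10) showed 50% or more at least once.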
B: 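Assay of Toxoplasma gondii numbers, read through their beta-galactosidase reporter with a colour substrate. Tested at 10 µM. Higher reads as fewer parasites (inferred from which compounds were picked for retests). About 67,000 compounds were tested under these conditions; 0.38% (about 260) showed 50% or more at least once.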
C: 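Enzyme assay of tryptophanyl-tRNA synthetase; the read-out is not stated. Target: Tryptophan-tRNA ligase, Mycobacterium tuberculosis (UniProt P9WFT3). Tested at 10 µM. Higher most likely means stronger inhibition; the record gives no direction and few retests gave an IC50. About 65,000 compounds were tested under these conditions; 0.098% (about 64) showed 50% or more at least once.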
D: 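Coenzyme A biosynthesis protein CoaBC, Mycobacterium tuberculosis (UniProt P9WNZ1). Enzyme assay of CoaBC with a phosphate dye (Biomol Green) read at 650 nm. Concentration: 30 µM. Higher reads as stronger inhibition, judged from the few compounds that gave an IC50. Most strong results did not repeat in a second test. Size under these conditions: about 67,000 compounds, about 40 of them at 50% or above in at least one test.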

Each number is a percent effect as filed.
How 0% and 100% were set is not recorded. Most values in the screen are low, and negative values occur.
The compounds are a random part of those screened.
Two or more numbers in one place are separate tests of the same structure; such repeats can differ widely.
A dash means the value is not listed here; it may have been measured.

| compound | A | B | C | D |
|---|---|---|---|---|
| `O=C1CC2(CCN(Cc3cccnc3)C2)CN1c1cncnc1` (stereo not given) | 6.004 | - | -3.867 | 4.079 |
| `Cc1ccccc1OCCC(=O)NC(C)c1nnc2n1CCCCC2` (stereo not given) | -26.83 | 11.21 | 1.271 | 1.513 |
| `Cc1cccc(C(=O)N2CCC3(CCN(c4cnn(C)c4)C3=O)C2)n1` (stereo not given) | -10.21 | - | -5.556 | 1.603 |
| `Cc1nn(C)c(C)c1C1COCCN1C(=O)c1ccc(Cl)o1` (stereo not given) | 6.616 | 8.272 | 80.78 | -1.434 |
| `CC1N(CC2CC2)C(=O)COC12CCN(Cc1nccs1)CC2.O=C(O)C(F)(F)F` (stereo not given) | - | 11.88 | - | - |
| `O=C(NCCc1cccs1)N1CCCC2(CCC(=O)N(C3CC3)C2)C1` (stereo not given) | -5.52 | 0.4511 | 0.7452 | 14.91 |
| `Cc1ccc(S(C)(=O)=O)cc1C(=O)N1CCCC(n2cncn2)C1` (stereo not given) | -15.66 | 11.59 | -1.874 | -1.877 |
| `C=C(C)CN1CCC(c2n[nH]c(C3CC3)n2)CC1` | -3.616 | - | -2.484 | -2.337 |
| `Cc1ncc(C(=O)N2CCC(N3CCc4ccccc4C3)CC2)c(O)n1` | -7.438 | -1.21 | 11.57 | 15.02 |
| `Cc1cc(CNC(=O)N2CCN(c3nc(C)c(C)s3)CC2)no1` | -4.848 | 1.266 | 21.2 | 15.53 |
| `O=C(c1ccccn1)N1C[C@H]2CCC[C@@]2(COCC2CCOCC2)C1` | 5.613 | - | -1.146 | 2.637 |
| `CCN1CCCN(c2ccc(-n3ccc(C)n3)nn2)CC1` | -3.354 | 5.552 | 1.168 | -11.08 |
| `CC(=O)N1CCN(C(=O)CNc2c(C)cccc2OC(F)F)CC1` | 4.116 | -5.915 | 3.087 | 7.983 |
| `CN(Cc1nccs1)C1CCN(c2cccc(-c3cscn3)c2)CC1` | -9.406 | -2.248 | 8.35 | 6.349 & 20.37 |
| `O=C(C1=CCCC1)N1C[C@H]2CCC[C@@]2(COCc2ccncc2)C1` | -4.245 | - | -3.586 | 2.316 |
| `O=C(O)C(F)(F)F.[H][C@@]12OCCN(S(=O)(=O)C3CC3)[C@@]1([H])CC[C@H]2Oc1cccnc1` | - | 17.83 | - | - |
| `Cc1nc(CN(C)C(=O)CN(C)C)nc2c1CCC(=O)N2CCC(C)C` | -11.22 | 12.52 | -2.137 | 4.795 |
| `CO[C@@H]1CCN(S(=O)(=O)c2cn(C)cn2)[C@H]1Cc1cnn(C)c1` | -16.83 | - | -1.58 | 0.9677 |
| `COc1ccccc1OCC(=O)N1C[C@@H]2CN(C)CCO[C@@H]2C1` | 12.89 | - | 6.58 | - |
| `COc1c(C2CCCN2CC(=O)NCc2ccccn2)c(C)nn1C` (stereo not given) | -11.83 | -30.65 | -3.739 | 9.565 |
| `OC1CN(c2nc3c(C(F)(F)F)cccc3s2)C1` | 7.953 | 21.84 | -1.039 | 2.417 |
| `Cc1nc(O)c2nnn(C[C@H]3CCCN3C(=O)C(C)(C)C)c2n1` | -1.341 | -12.19 | 0.75 | 0.3927 |
| `CC(C)N1CCC(N2CCC(C(=O)N(C)C)CC2)CC1.O=C(O)C(F)(F)F.O=C(O)C(F)(F)F` | - | 13.57 | - | - |
| `COCc1nc(C(=O)N2CCCC(n3nc(C)cc3C)C2)cs1` (stereo not given) | -103.4 | -2.926 | -10.55 | 1.434 |
| `Cc1ccc(-c2cc(-c3nc(CN4CCN(C)CC4)no3)[nH]n2)s1` | 31.7 | -7.356 | -0.4955 | 17.99 & 21.12 |
| `COCC1CC2(CCN(Cc3ccccn3)CC2)CN1c1ncccn1` (stereo not given) | 1.271 | - | -2.604 | 1.629 |
| `O=C(Cc1ccccc1)NCc1ncc(-c2ccccc2C(=O)O)cn1` | -9.195 | -19.69 | -7.326 | -3.942 |
| `COc1cc(CNCC(O)c2ccccc2)cc2c1OCO2.Cl` (stereo not given) | - | 2.712 | - | - |
| `Cn1nc(C2CCCN(Cc3ccc(F)cc3F)C2)c2nccnc21` (stereo not given) | 0.3187 | -17.37 | - | -0.2451 |
| `CNC(=O)N1C[C@H]2N(c3ncccn3)CCC[C@@]2(C(=O)NCC2CC2)C1` | -0.9378 | - | - | 0 |
| `CN(CC(=O)NC1(C)CCS(=O)(=O)C1)Cc1ccc(F)c(F)c1` (stereo not given) | -1.193 | -10.68 | 5.423 | 1.044 |
| `O=S(=O)(c1cccs1)N1CCCC2(COCCN(c3cccnc3)C2)C1` (stereo not given) | -0.3861 | - | -3.44 | 1.25 |
| `COc1ccc(C(=O)N(C)Cc2ncc(C)c(OC)c2C)c(OC)c1` | -12.51 | 7.643 | 1.709 | 5.4 |
| `Cc1cc(C)c(CNC(=O)NCC2COCCO2)c(=O)[nH]1` (stereo not given) | -37.99 | -10.46 | -2.704 | 2.046 |
| `O=C(NC1CCOC1)c1cccc(S(=O)(=O)NCCCc2ncc[nH]2)c1` (stereo not given) | -3.226 | -5.758 | 3.406 | -0.6031 |
| `CCN(CCC(=O)OC)S(=O)(=O)c1cnc2c(c1)c(C)nn2C` | 7.449 | -0.2981 | -3.625 | 9.091 |
| `COC(=O)C1CN(CC(=O)Nc2cccc(OC)c2)c2ccccc21` (stereo not given) | 4.072 | -5.401 | 1.687 | -2.82 |
| `COCCNC(=O)N1CCN(C(C)C(=O)NC2CCCC2)CC1` (stereo not given) | -6.735 | 1.427 | -1.371 | 2.903 |
| `COCC1CN(CCOc2ccc(Cl)cc2)Cc2c1cnn2C` (stereo not given) | -15.9 | - | - | 6.559 |
| `Cc1noc([C@]23COC[C@H]2CN(C(C)C)C3)n1` | 5.342 | - | -2.196 | 1.025 |
| `O=C(O)C(F)(F)F.[H][C@@]12C[C@H](c3nc(C)no3)CN(C3CCC3)[C@]1([H])CCO2` | - | 17.18 | - | - |
| `Cc1nc(CN2CCC3(CCN(Cc4cnn(C)c4)CC3)C2=O)cs1.O=C(O)C(F)(F)F.O=C(O)C(F)(F)F` | - | -2.766 | - | - |
| `COc1ccc2c(ccn2CCCN)c1.O=C(O)C(=O)O` | - | 8.895 | - | - |
| `COCC1CN(S(=O)(=O)Cc2ccc(C)cc2)Cc2c1cnn2C.O=C(O)C(F)(F)F` (stereo not given) | - | -2.427 | - | - |
| `Cn1nc2c(cc1=O)CN(Cc1nc3ccccc3c(=O)[nH]1)CC2` | -23.04 | 3.91 | 0.06456 | 0.7614 |
| `CCC(C(=O)NCc1ccncc1)N(c1cccc(Cl)c1)S(C)(=O)=O` (stereo not given) | -4.514 | 5.24 | -5.093 | 3.085 |
| `COc1c(CNC(C)C(=O)NC2CCCC2)c(C(C)C)nn1C` (stereo not given) | 8.478 | 3.231 | -1.288 | -1.222 |
| `CCc1nnc(Nc2cc(C)nc(C3CCN(c4ccncn4)C3)n2)s1` (stereo not given) | 22.77 | 84.37 | 6.948 | -2.098 |
| `Cn1cnc(S(=O)(=O)N2C[C@@H]3CC[C@H](C2)N(Cc2cscn2)C3=O)c1` | -24.8 | - | 3.612 | 1.22 |
| `CSc1[nH]c(=O)c(C(=O)N2CCCC2c2cccs2)cc1C#N` (stereo not given) | 0.7014 | -0.04305 | 2.16 | 0.7282 |
| `Cc1cccc(C(=O)N2CCN(C)CC2)c1NC(=O)c1ccncc1` | -11.6 | -10.14 | 0.4841 | 10.64 |
| `COCCN1C(=O)CCC12CCN(c1ncc(F)cn1)CC2.O=C(O)C(F)(F)F` | - | -1.467 | - | - |
| `COc1ccccc1OC1CN(c2ccncc2)C1` | 8.943 | 20.77 | 0.08157 | 6.04 |
| `CC(C)NC(=O)N1CCC2(CCC(=O)N2CCN(C)C)CC1` | -1.453 | - | -6.541 | 5.534 |
| `CC1CCCCN1C(=O)c1coc(COc2cccc3cnccc23)n1` (stereo not given) | -19.46 | 32.04 | -3.823 | -49.53 |
| `CS(=O)(=O)c1ccc(CN2CCCCC2c2cccc(F)c2)cc1` (stereo not given) | -7.085 | -6.155 | 6.154 | 0.4914 |
| `[H][C@@]12CCN(c3cnccn3)C[C@@]1(C(=O)O)CCCN2Cc1ccncc1` | - | 0.1101 | - | - |
| `O=C(c1coc2ccccc12)N1CCCC(O)(CO)CC1` (stereo not given) | -4.531 | 0.2283 | -3.096 | - |
| `CNC(=O)c1cc2c(nc1NCC(C)C)CCN(CC1CC1)CC2` | -108.5 | - | -3.144 | -35.51 |
| `CCOCCN1CCN(CC(=O)N2CCCC2)CC1CC` (stereo not given) | 13.35 | -15.02 | -0.5206 | 4.099 |
| `Cc1cccc(CN2CCN(Cc3ccccc3)CC(O)C2)n1` (stereo not given) | -6.778 | 0 | -0.6966 | -3.198 |
| `COc1cc(N2CCC(c3nccn3CCCN(C)C)CC2)nc(N)n1` | -4.141 | 28.77 | 2.518 | 4.569 |
| `Cc1nn(C)c(C)c1C1CCCN1CCCc1nc2ccccc2o1` (stereo not given) | 9.988 | 12.23 | -5.399 | 7.236 |
| `c1cnn(CC2CCCN2c2ncnc3c2CCC3)c1` (stereo not given) | 1.849 | -0.06313 | -5.683 | -3.415 |
| `Cc1ccccc1OCC(O)CN1CCC(c2ccn[nH]2)CC1` (stereo not given) | -21.78 | 9.807 | -7.106 | 1.837 |

The first 6 entries again:

O=C1CC2(CCN(Cc3cccnc3)C2)CN1c1cncnc1 (stereo not given) read A: 6.004%; C: -3.867%; D: 4.079%.
Cc1ccccc1OCCC(=O)NC(C)c1nnc2n1CCCCC2 (stereo not given) read A: -26.83%; B: 11.21%; C: 1.271%; D: 1.513%.
Cc1cccc(C(=O)N2CCC3(CCN(c4cnn(C)c4)C3=O)C2)n1 (stereo not given) read A: -10.21%; C: -5.556%; D: 1.603%.
Cc1nn(C)c(C)c1C1COCCN1C(=O)c1ccc(Cl)o1 (stereo not given) read A: 6.616%; B: 8.272%; C: 80.78%; D: -1.434%.
CC1N(CC2CC2)C(=O)COC12CCN(Cc1nccs1)CC2.O=C(O)C(F)(F)F (stereo not given) read B: 11.88%.
O=C(NCCc1cccs1)N1CCCC2(CCC(=O)N(C3CC3)C2)C1 (stereo not given) read A: -5.52%; B: 0.4511%; C: 0.7452%; D: 14.91%.